Reference: PubChem BioAssay AID1671190 (National Center for Advancing Translational Sciences (NCATS), 2021)
The whole screen tested about 580,000 compounds, of which about 6,100 (1.1%) were called active. Inconclusive means that the source gave no clear call. Such entries were picked first, then a sample of the others. The call rests on the fitted dose curve; in most records, active means well fitted inhibition curve with a large enough effect; inconclusive means small, poorly fitted or top-dose-only effect, or another doubt; inactive means no such curve, though single readings can be large or run the other way. Where the call is inconclusive, the potency comes from a doubtful curve fit.

By UniProt entry, the sequences of proteins in these tests, tags left out.
UniProt P18054, whole entry, looked up: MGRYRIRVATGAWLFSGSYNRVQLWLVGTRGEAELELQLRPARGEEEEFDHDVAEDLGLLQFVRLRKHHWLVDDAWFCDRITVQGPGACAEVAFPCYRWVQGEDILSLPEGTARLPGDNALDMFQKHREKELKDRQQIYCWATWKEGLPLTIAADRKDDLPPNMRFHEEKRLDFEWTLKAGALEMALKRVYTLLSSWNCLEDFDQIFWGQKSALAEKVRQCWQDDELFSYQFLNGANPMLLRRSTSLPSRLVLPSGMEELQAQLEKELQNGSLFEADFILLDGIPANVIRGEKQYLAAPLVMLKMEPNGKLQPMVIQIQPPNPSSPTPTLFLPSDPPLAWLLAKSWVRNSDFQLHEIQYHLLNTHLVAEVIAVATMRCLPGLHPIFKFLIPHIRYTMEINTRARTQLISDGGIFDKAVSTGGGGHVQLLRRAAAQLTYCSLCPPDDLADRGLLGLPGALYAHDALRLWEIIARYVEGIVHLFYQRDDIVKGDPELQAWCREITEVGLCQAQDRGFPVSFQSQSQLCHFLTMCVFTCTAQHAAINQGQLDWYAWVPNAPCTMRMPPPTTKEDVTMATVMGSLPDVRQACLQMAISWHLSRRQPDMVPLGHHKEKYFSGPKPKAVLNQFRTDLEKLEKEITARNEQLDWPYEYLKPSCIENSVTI

biological target: Polyunsaturated fatty acid lipoxygenase ALOX12 (Homo sapiens) (UniProt P18054); assay: Primary qHTS assay for inhibitors of human arachidonate 12S-lipoxygenase (ALOX12): Round 2; conditions: purified 12hLO, xylenol orange hydroperoxide absorbance; activity change, negative = inhibition: at 108 µM (top of the series) unless noted
Outline: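 Purified human 12hLO (150 nM final) in 25 mM Hepes, 0.01% Triton X-100, pH 7.0 was preincubated 15 min at room temperature with compound. Then 40 uM arachidonic acid was added, 30 min. Hydroperoxide was read by Fe-XO absorbance ratio 573/405 nm.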
On the % scale 0 is the no-effect control and ±100 the full control effect; potency means the concentration at half of the fitted maximal effect.

| Structure (SMILES) | activity change, negative = inhibition | Potency |
| --- | --- | --- |
| COC(=O)C1=C(C)N(Cc2ccccc2C(F)(F)F)C(=NCc2ccc3c(c2)OCO3)NC1c1cccc(C(F)(F)F)c1 (centres undefined) | inactive: -13.9% |  |
| COc1cc(CCC(N)c2cccc(O)c2)cc(OC)c1OC (centres undefined) | inactive: -1.38% |  |
| Nc1c(-c2ccc(Cl)cc2)cnn1-c1cccc(C(F)(F)F)c1 |  | inconclusive: 70.8 µM [inhibitor, partial curve, poor fit] |
| O=C(O)c1cn(-c2ccccc2)nc1C(=O)O |  | inconclusive: 39.8 µM [inhibitor, partial curve, poor fit] |
| Cn1c(-c2ccc(Cl)nc2)nc2ccccc21 | inactive: 5.65% |  |
| CC1CCc2c(-c3cccc(O)c3)nc3ccc4ccccc4c3c2C1 (centres undefined) |  | inconclusive: 4.47 µM [inhibitor, full curve, poor fit] |
| N/C(=N\c1nc2c(c(=O)[nH]1)CCCC2)Nc1ccccc1Sc1ccccc1 | inactive: 2.99% |  |
| CSc1nc2ccccc2c(=O)n1CC(=O)c1ccccc1C | inactive: 2.82% |  |
| O=S(c1ccccc1O)S(=O)c1ccccc1O (centres undefined) |  | active: 2.24 µM |
| Cc1ccc2cccc(N)c2n1 | inactive: 5.14% |  |
| CCc1cccc2c(C(=O)CN3C(=O)NC4(CCCCCC4)C3=O)c[nH]c12 |  | inconclusive: 100 µM [inhibitor, single point] |
| Cc1cccc(NC(=S)NC(=O)/C=C/c2ccco2)c1 |  | inconclusive: 35.5 µM [inhibitor, partial curve, poor fit] |
| CC(=O)Nc1ccc(-c2csc(N/N=C\c3ccncc3)n2)cc1 | inactive: -3.53% |  |
| O=C(O)c1ccn(CSc2cc(Cl)ccc2Cl)n1 |  | inconclusive: 8.91 µM [inhibitor, full curve, poor fit] |
| CC(C)(C)c1ccc(OCC(=O)Nc2ccncc2)c(Br)c1 |  | inconclusive: 100 µM [inhibitor, single point] |
| Cc1cccn2c(=O)cc(COc3cccc(NC(=O)c4ccccc4F)c3)nc12 |  | inconclusive: 126 µM [inhibitor, partial curve, poor fit] |
| Cc1ccccc1C(C)NC(=O)c1ccc2c(c1)NC(=O)CS2 (centres undefined) |  | inconclusive: 5.62 µM [inhibitor, full curve, poor fit] |
| Cc1nc(Nc2ccccc2)sc1C(=O)Nc1ccccc1 |  | inconclusive: 44.7 µM [inhibitor, partial curve, poor fit] |
| O=C(Nc1ccc(Cl)c(Cl)c1)N1CCC(c2ccccc2)C1 (centres undefined) | inactive: -21.8% |  |
| CC/C(C)=N/Nc1nc2c(c(=O)[nH]c(=O)n2C)n1Cc1ccccc1 |  | inconclusive: 79.4 µM [inhibitor, single point] |
| CCOC(=O)Cc1c(C)nc2c(-c3ccccc3)cnn2c1C | inactive: 7.98% |  |
| O=C(c1cc(-c2ccccn2)nc2c(Cl)cccc12)N1CCN(C(=O)C2CCCO2)CC1 (centres undefined) |  | inconclusive: 44.7 µM [inhibitor, partial curve, poor fit] |
| Cc1noc([C@@H]2CC(F)(F)CN2C(=O)c2cc(C)oc2C)n1 |  | inconclusive: 10 µM [inhibitor, full curve] |

| Structure (SMILES) | activity change, negative = inhibition | Potency |
| --- | --- | --- |
| NCCCC[C@@H](C(=O)NCCCCCCCCCCC(=O)N1CCNCC1)n1cc(CCO)nn1 |  | inconclusive: 39.8 µM [inhibitor, partial curve, poor fit] |
| O=C(Nc1cccc(Cl)c1)c1csnn1 | inactive: -56.4% |  |
| COc1cc(-c2noc(C)c2/C=C/c2cccc([N+](=O)[O-])c2)cc(OC)c1OC |  | inconclusive: 50.1 µM [inhibitor, partial curve, poor fit] |
| Cc1c(NC(=O)c2ccco2)cccc1C(=O)O | inactive: -21% |  |
| CN(C)S(=O)(=O)c1ccc(=S)[nH]c1 |  | inconclusive: 2.24 µM [inhibitor, full curve, poor fit] |
| C/C(=N\NC(=O)c1cc(C2CC2)nc2ccccc12)c1ccc(C(C)C)cc1 | inactive: 23.7% |  |
| Cc1ccc2c(n1)N(C)[C@H](CO)CCN(Cc1cn(C)c3ccccc13)C2 | inactive: -9.39% [at 176 µM] |  |
| CC(C)n1nnnc1SCC(=O)N(Cc1cccs1)c1ccc2c(c1)OCCO2 | inactive: 31.9% |  |
| O=C1N(Cc2ccccc2)CCOC12CCN([S+](=O)([O-])c1ccccc1)CC2 |  | inconclusive: 141 µM [inhibitor, partial curve, poor fit] |
| CN(C)Cc1ccccc1Sc1ccc2c(c1)CCCC2 |  | inconclusive: 3.55 µM [inhibitor, full curve, poor fit] |
| Cc1ccc(-c2nc(SCC(=O)NCC3CCCO3)c(-c3ccc(C)cc3)[nH]2)cc1 (centres undefined) |  | inconclusive: 141 µM [inhibitor, single point] |
| COC(=O)C(NC(C)=O)(Nc1nc(C)cs1)C(F)(F)F (centres undefined) |  | inconclusive: 25.1 µM [inhibitor, partial curve, poor fit] |
| Brc1cccc(CNCc2cccnc2-n2cccn2)c1 |  | inconclusive: 44.7 µM [inhibitor, partial curve, poor fit] |
| Cc1ccc([N+](=O)[O-])cc1S(=O)(=O)N(C)N=Cc1cnc2ccc(Br)cn12 |  | active: 8.63 µM |
| C[C@H](C(=O)N1CCOCC1)C1CC[C@@]2(C)Cc3sc(CS(=O)(=O)C(C)(C)C)nc3[C@@H](C)[C@@H]2[C@H]1O (some centres undefined) |  | inconclusive: 79.4 µM [inhibitor, partial curve, poor fit] |
| CC(C)(C)CNC(=O)c1nc[nH]c1C(=O)N1CCCCC1 |  | inconclusive: 39.8 µM [inhibitor, partial curve] |
| O=C(CC1C(=O)NCCN1Cc1cccc(F)c1)NC1CCC1 (centres undefined) | inactive: 119% |  |
| CC(C)COP(=O)(OCC(C)C)C(Nc1ccccc1)c1ccccc1 (centres undefined) |  | inconclusive: 79.4 µM [inhibitor, partial curve, poor fit] |
| CCN(CC)S(=O)(=O)c1ccc(Cl)c(NC(=O)COC(=O)c2cc(=O)c3ccccc3o2)c1 |  | inconclusive: 50.1 µM [inhibitor, single point] |
| COC(=O)C1=CCCCC(O)=C1C(=O)OC |  | inconclusive: 11.2 µM [inhibitor, full curve, poor fit] |
| O=C1C(=Cc2cn(-c3ccccc3)nc2-c2ccc(OCc3ccccc3)cc2)SC(=S)N1CCS(=O)(=O)O |  | inconclusive: 35.5 µM [inhibitor, partial curve, poor fit] |
| Cc1cccc(NC(=O)c2cc(-c3cccs3)nc3ccccc23)n1 |  | inconclusive: 44.7 µM [inhibitor, partial curve, poor fit] |
| NC1=C(c2ccc(F)cc2)C(=O)CS1 | inactive: 30.8% |  |

Some of the entries so far, tab-delimited.
Structure (SMILES)	activity change, negative = inhibition	Potency
CN(C)Cc1ccccc1Sc1ccc2c(c1)CCCC2		inconclusive: 3.55 µM [inhibitor, full curve, poor fit]
Cc1ccc(-c2nc(SCC(=O)NCC3CCCO3)c(-c3ccc(C)cc3)[nH]2)cc1 (centres undefined)		inconclusive: 141 µM [inhibitor, single point]

More results follow:

| Structure (SMILES) | activity change, negative = inhibition | Potency |
| --- | --- | --- |
| CCN1CCN(Cc2c(O)c(Cl)cc3c(C)cc(=O)oc23)CC1 |  | inconclusive: 112 µM [inhibitor, single point] |
| COc1cccc(/C=N/Nc2nc(Nc3ccccc3)nc(-n3nc(C)cc3C)n2)c1O | inactive: 0% |  |
| CCc1ccc(C(=O)COC(=O)CCc2ccccc2)cc1 |  | inconclusive: 89.1 µM [inhibitor, partial curve, poor fit] |
| Cc1nnc(N2CCN(C(=O)Nc3cccc(C(F)(F)F)c3)CC2)c2nn(-c3ccccc3)c(C)c12 |  | inconclusive: 112 µM [inhibitor, single point] |
| CCOC(=O)N1CCN(C(=O)c2ccc(Cn3c(=S)[nH]c4cc5c(cc4c3=O)OCO5)cc2)CC1 | inactive: -4.97% |  |
| Cc1ccc(OCC(=O)N2CCN(c3ncccn3)CC2)c(C)c1 |  | inconclusive: 89.1 µM [inhibitor, single point] |
| O=C(CSCc1c[nH]c(=O)[nH]c1=O)OCC(=O)c1ccc(Br)cc1 |  | inconclusive: 50.1 µM [inhibitor, partial curve, poor fit] |
| CNc1oc(-c2ccco2)nc1S(=O)(=O)c1ccccc1 |  | inconclusive: 44.7 µM [inhibitor, partial curve, poor fit] |
| O=C(Nc1ccc2c(c1)OCCO2)C(c1ccnc2ccccc12)N1CCN(C/C=C/c2ccccc2)CC1 (centres undefined) |  | inconclusive: 44.7 µM [inhibitor, partial curve, poor fit] |
| O=c1cc(CSc2ccccc2)[nH]c(=S)[nH]1 |  | inconclusive: 15.8 µM [inhibitor, partial curve, poor fit] |
| COCCOCC1(CNC(=O)Nc2cccnc2)C[C@@H](O)[C@@H](O)C1 (some centres undefined) |  | inconclusive: 28.2 µM [inhibitor, full curve] |
| COc1ccc(S(=O)(=O)c2c(SC)nn(Cc3ccccc3C)c2NC(C)=O)cc1 | inconclusive: -40.8% [inhibitor] |  |
| CCc1cccc2c(C(=O)C(=O)NCc3ccc(OC)cc3)c[nH]c12 |  | inconclusive: 22.4 µM [inhibitor, full curve, poor fit] |
| Cc1cccc(Cn2c(NCC3CCCO3)nc3c2c(=O)n(C)c(=O)n3C)c1 (centres undefined) | inactive: 5.84% |  |
| Cn1nccc1CN1CCn2c(nnc2-c2cccnc2)C1 |  | inactive |
| O=C(CSc1nc2c([nH]c3ccccc32)c(=O)n1-c1ccccc1)N1CCCC1 | inactive: -10.3% |  |
| O=C(NCc1ccccc1)c1ccc2c(c1)n(Cc1ccc(F)cc1)c(=O)c1ccnn12 |  | inconclusive: 50.1 µM [inhibitor, partial curve] |
| C[n+]1ccccc1/C=C/c1cc(Br)ccc1O |  | inconclusive: 35.5 µM [inhibitor, single point] |
| CC(C)(C)CCN1CC(Oc2cccc(C(=O)N3CCOCC3)c2)C1 |  | active: 22.4 µM |
| CC(Oc1ccc(Br)cc1)C(=O)NC1CCN(Cc2ccccc2)CC1 (centres undefined) |  | inconclusive: 50.1 µM [inhibitor, partial curve, poor fit] |
| CCSc1nnc(-c2ccc(C)cc2)c2ccccc12 | inactive: -5.42% |  |
| O=C(NNC(=O)c1ccc(Oc2ccc(C3SCCS3)cc2)o1)c1ccc(Cl)cc1 | inactive: 143% |  |
| CCOC(=O)c1cccc(Nc2ccc3cc(S(=O)(=O)N4CCCCC4)ccc3n2)c1 |  | inconclusive: 126 µM [inhibitor, partial curve, poor fit] |

Reprinted at random: 2 compounds from above.

| Structure (SMILES) | activity change, negative = inhibition | Potency |
| --- | --- | --- |
| CCN(CC)S(=O)(=O)c1ccc(Cl)c(NC(=O)COC(=O)c2cc(=O)c3ccccc3o2)c1 |  | inconclusive: 50.1 µM [inhibitor, single point] |
| O=c1cc(CSc2ccccc2)[nH]c(=S)[nH]1 |  | inconclusive: 15.8 µM [inhibitor, partial curve, poor fit] |
